PMC12629592, “MCAK recognizes the nucleotide-dependent feature at growing microtubule ends” (eLife, 2025)
No constants are given. Whether binding was seen depends on the method and setting.

Protein sequences, listed by entry. Tags and fused reporters are not part of them. Residues count along the entry.
UniProt Q99661, residues 216-598: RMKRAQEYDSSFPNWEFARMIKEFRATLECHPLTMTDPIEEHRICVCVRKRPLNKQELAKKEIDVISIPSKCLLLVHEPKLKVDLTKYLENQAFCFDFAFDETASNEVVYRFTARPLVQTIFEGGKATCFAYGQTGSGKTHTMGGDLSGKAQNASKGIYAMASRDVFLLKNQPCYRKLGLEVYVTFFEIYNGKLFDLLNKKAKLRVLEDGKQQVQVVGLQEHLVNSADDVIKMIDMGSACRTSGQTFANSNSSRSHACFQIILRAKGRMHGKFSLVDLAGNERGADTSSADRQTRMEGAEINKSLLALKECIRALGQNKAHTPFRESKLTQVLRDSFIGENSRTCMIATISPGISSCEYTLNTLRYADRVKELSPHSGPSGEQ

Biological target: GFP-MCAK^sN+M (UniProt Q99661)
Test: single-molecule fluorescence intensity (TIRF microscopy); fluorescence intensity of single binding events on dynamic microtubules (tubulin 16 μM), 10 nM protein, 1 mM ATP; ends and lattice not told apart; both purified

GFP-MCAK^sN+M (from UniProt Q99661 216-598) (domain or fragment)
binding: no binding
